# These are yes or no findings as the source states them, for the method shown. Binding can be weak; no strength is given.
# Chains of the proteins cited; added tags and fusions are not shown. Lines headed by an entry give the natural chain unless they say otherwise; changes in a name come on top.
# UniProt P53067: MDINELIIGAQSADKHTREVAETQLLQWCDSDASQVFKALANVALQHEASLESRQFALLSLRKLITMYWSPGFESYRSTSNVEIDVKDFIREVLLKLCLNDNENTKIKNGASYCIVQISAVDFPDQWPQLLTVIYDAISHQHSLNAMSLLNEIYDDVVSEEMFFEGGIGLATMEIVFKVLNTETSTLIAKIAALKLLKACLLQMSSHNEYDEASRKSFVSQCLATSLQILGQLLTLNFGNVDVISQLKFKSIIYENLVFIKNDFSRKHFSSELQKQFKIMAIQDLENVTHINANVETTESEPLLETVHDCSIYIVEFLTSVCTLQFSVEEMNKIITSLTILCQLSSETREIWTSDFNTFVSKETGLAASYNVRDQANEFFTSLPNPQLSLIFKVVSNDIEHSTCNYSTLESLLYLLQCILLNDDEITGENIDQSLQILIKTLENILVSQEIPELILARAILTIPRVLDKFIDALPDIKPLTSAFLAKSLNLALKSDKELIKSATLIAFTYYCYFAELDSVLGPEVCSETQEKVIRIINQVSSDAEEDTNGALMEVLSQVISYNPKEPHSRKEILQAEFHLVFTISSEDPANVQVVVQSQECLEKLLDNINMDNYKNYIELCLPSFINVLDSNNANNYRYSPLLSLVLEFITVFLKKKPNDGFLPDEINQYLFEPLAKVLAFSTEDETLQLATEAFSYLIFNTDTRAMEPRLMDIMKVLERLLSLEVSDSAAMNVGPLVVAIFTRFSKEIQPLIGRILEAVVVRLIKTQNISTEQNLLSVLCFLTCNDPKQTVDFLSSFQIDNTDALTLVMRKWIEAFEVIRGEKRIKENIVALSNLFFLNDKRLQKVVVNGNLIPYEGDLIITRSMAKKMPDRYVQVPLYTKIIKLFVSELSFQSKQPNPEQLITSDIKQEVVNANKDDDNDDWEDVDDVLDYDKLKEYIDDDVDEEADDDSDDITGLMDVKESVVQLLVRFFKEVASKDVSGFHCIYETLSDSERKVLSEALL
# B1: core domain of yeast TATA-box binding protein (yTBP^C), wild type (domain or fragment, S. cerevisiae, UniProt P13393 61-240, looked up)
# chain: SGIVPTLQNIVATVTLGCRLDLKTVALHARNAEYNPKRFAAVIMRIREPKTTALIFASGKMVVTGAKSEDDSKLASRKYARIIQKIGFAAKFTDFKIQNIVGSCDVKFPIRLEGLAFSHGTFSSYEPELFPGLIYRMVKPKIVLLIFVSGKIVLTGAKQREEIYQAFEAIYPVLSEFRKM
# notes: 61-240; His tag removed with PreScission protease; also called yTBP core domain; source: E. coli Rosetta, purified (Ni-NTA, HiTrap SP, Superdex 75); not shown: His6, N-terminal, cleaved
# Molecular target: Kap114pΔ(848-875) (S. cerevisiae) (UniProt P53067)
# Assay: ITC; MicroCal iTC200, 25 °C, 20 mM HEPES pH 7.4, 150 mM NaCl; 25 or 50 μM wild type or mutant Kap114p in the cell, 250 or 500 μM wild-type or mutant yTBP^C in the syringe; triplicate; both purified
binder,measurement,value
B1,binding,binds
